Reference: publication PMC9584350
These are yes or no findings as the source states them, for the method shown. Binding can be weak; no strength is given.

Protein sequences, listed by entry. Tags and fused reporters are not part of them. Lines headed by an entry give the natural chain unless they say otherwise; changes in a name come on top. Residues count along the entry.
UniProt P54646, residues 291-552: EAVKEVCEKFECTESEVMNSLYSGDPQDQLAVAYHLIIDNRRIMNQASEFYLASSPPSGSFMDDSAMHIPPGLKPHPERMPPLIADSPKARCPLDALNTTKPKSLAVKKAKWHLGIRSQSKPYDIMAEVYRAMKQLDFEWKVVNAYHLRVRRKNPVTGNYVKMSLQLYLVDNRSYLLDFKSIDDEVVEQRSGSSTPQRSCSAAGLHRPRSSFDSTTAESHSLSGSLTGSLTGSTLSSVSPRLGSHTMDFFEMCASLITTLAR
UniProt P62330: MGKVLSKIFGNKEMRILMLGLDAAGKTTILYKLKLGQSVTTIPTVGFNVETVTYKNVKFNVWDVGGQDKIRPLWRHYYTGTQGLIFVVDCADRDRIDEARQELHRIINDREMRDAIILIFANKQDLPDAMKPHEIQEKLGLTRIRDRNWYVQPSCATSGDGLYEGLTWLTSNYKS

Molecular target: GST–AMPK-C (amino acids 291–552 of AMPKα2) (UniProt P54646)
Test: pull-down; GST–AMPK-C immobilised on glutathione beads, incubated with His–Arf6-T27N; 25 mM Tris-HCl pH 7.5, 150 mM NaCl, 0.5% NP-40, 5 mM MgCl2, 1 h at 4°C; anti-His western blot; both purified

His–Arf6-T27N (d13N-T27N) (from UniProt P62330)
binding: binds
